This is one part of the list.
Target: T1, OsSMF1 (Oryza sativa, UniProt Q6ZLB0 1-436)
T1 sequence: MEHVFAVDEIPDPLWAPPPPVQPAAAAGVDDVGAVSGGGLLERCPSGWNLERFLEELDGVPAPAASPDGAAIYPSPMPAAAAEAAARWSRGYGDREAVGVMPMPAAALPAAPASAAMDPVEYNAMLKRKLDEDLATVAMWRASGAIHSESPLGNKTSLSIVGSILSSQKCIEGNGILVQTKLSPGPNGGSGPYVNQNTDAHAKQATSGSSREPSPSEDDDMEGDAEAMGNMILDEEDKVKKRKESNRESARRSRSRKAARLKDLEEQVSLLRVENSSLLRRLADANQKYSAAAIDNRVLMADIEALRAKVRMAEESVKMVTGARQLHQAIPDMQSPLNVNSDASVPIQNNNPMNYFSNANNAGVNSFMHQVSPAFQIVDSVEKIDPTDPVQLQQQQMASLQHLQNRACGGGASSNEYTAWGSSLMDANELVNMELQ
Experiment: protein-binding microarray (RPBM); PBS, 2% BSA, 51.3 ng/ul salmon testes DNA, 50 uM zinc acetate, 200 nM TF, 25 C, 1 h; high values mean tight binding
Details: protein: recombinant; tags: N-terminal polyhistidine and DsRed monomer fusion (pET32a); chain copies: 2; label: CyDye5-dUTP incorporated in the synthesized complementary strand; 3' TTTTT single-stranded linker to array surface; dsDNA, one strand shown
In short: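 In PBS with 2% BSA, salmon testes DNA and 50 µM zinc acetate, 200 nM protein was incubated on a custom Agilent array at 25 °C for 1 h and then washed off. The array had been made double-stranded by primer extension with Cy5-dUTP and blocked with 2% BSA. The proteins were transcription factors fused N-terminally to polyhistidine and DsRed, expressed in E. coli BL21-CodonPlus and purified on Ni–NTA. The binding signal is per-feature fluorescence intensity (arbitrary units) from an Axon 4000B scanner.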

Sequence | binding signal
ACGAATGCTACGTACAGTCAACTTAATATTTCTTCGCCATCGGAGTCACCTAGTGCAG | 4240 fluorescence intensity (a.u.)
TCTGTTCTCCATGCTGCGCAGTACCCTGAGTTGCGTCTAACGGAGTCACCTAGTGCAG | 3380 fluorescence intensity (a.u.)
TGAGGAACAGGATGAGCTGGTCCTTCGATCTGGATGGGCACGGAGTCACCTAGTGCAG | 3540 fluorescence intensity (a.u.)
GCAATCTTTGCCTTGGTCCTCTTGAAGTCTTTGGCGGTATCGGAGTCACCTAGTGCAG | 27700 fluorescence intensity (a.u.)
TGAGTCTGAATTAGCATATAGGTCCCTCCCTCCCAAGCATCGGAGTCACCTAGTGCAG | 5600 fluorescence intensity (a.u.)
CTAGCTAGCTTGGCCTGCTGCCTGCTTACTGTACATCTCTCGGAGTCACCTAGTGCAG | 3340 fluorescence intensity (a.u.)
TGGCTGTACCACGTACGTCTATTACGTAGCACACTGTAGCCGGAGTCACCTAGTGCAG | 4390 fluorescence intensity (a.u.)
CCGCCCTTCTGCGCGCCGCCAACACCGTTCCTCCGCCGCGCGGAGTCACCTAGTGCAG | 3260 fluorescence intensity (a.u.)
CCTCACCCGCCGCGTGACGTTACCGCCCACACCCCAAACCCGGAGTCACCTAGTGCAG | 4210 fluorescence intensity (a.u.)
TCTCTCTCTCTCTCTCTCTCTCTCTCCTCACGTCACATGACGGAGTCACCTAGTGCAG | 4720 fluorescence intensity (a.u.)
CAACCCGCGACGTTGTCCCGTTACGCGTCAGCTTGCCACGCGGAGTCACCTAGTGCAG | 7900 fluorescence intensity (a.u.)
ATTGATGCAGCCCGTAGGCTGTAGCCACGTGGATCAATAACGGAGTCACCTAGTGCAG | 9120 fluorescence intensity (a.u.)
GGACAAAGAATACAACAAGAGTGTACTGCTTATATGCTCACGGAGTCACCTAGTGCAG | 3200 fluorescence intensity (a.u.)
TAATATATTTCCATGTCATCAGGAGCTAATGTTGTAGATACGGAGTCACCTAGTGCAG | 5960 fluorescence intensity (a.u.)
AAGTCAATGGAATATTATCATGTACGATATTGTTATAAAGCGGAGTCACCTAGTGCAG | 10700 fluorescence intensity (a.u.)
TGGTGTGTAATTTGTGCAAATTCTAAGCAAATGCAAATTGCGGAGTCACCTAGTGCAG | 17200 fluorescence intensity (a.u.)
GCCGGAGCACCGCTATACACATCACCAAAGGTCACGCTATCGGAGTCACCTAGTGCAG | 3700 fluorescence intensity (a.u.)
TGGAGGAGGAACCACGGCGCACTGGACGCGTCCAGTGATCCGGAGTCACCTAGTGCAG | 5300 fluorescence intensity (a.u.)
TCCCAAAATTCATGCAATTTCCGATATTTCACTTCCATTGCGGAGTCACCTAGTGCAG | 5300 fluorescence intensity (a.u.)
AATATACTAATTACAAACAGGTCCCTCGTGGGCTCGTGGGCGGAGTCACCTAGTGCAG | 3390 fluorescence intensity (a.u.)
AGATGGTCCCATATGTCATCCTGTCAATTAAAGCAATTGGCGGAGTCACCTAGTGCAG | 3490 fluorescence intensity (a.u.)
TAGAGTCATAGACACGACAACAGTATTAGATTCCGGCAAACGGAGTCACCTAGTGCAG | 3310 fluorescence intensity (a.u.)
CGCGCGCCGGCGTGGCGTGCGACAGCTGGAGGCTAGGCGTCGGAGTCACCTAGTGCAG | 4520 fluorescence intensity (a.u.)

Look-ups from the list:
In binding signal, GCCGGAGCACCGCTATACACATCACCAAAGGTCACGCTATCGGAGTCACCTAGTGCAG is entered as 3700 fluorescence intensity (a.u.)
In binding signal, GGACAAAGAATACAACAAGAGTGTACTGCTTATATGCTCACGGAGTCACCTAGTGCAG is entered as 3200 fluorescence intensity (a.u.)
